PubChem BioAssay AID504774 | Drosophila RNAi Screening Center, 2011

Purpose: 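Fly genes whose loss alters survival after alkylation damage to DNA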 (primary screen)
Cells: Drosophila Kc167 cells
Reagents: long dsRNA against Drosophila genes, about 0.25 µg dsRNA per well
Time to read-out: about 6 days: 3 days knock-down, then 3 days with or without MMS
Challenge: methyl methanesulphonate 0.004% (w/v) for 3 days after knock-down
Detection: 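Viability in wells given MMS, read as ATP luminescence, normalised by quantiles plate by plate and averaged across replicates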
Scale: mean viability with MMS and viability with MMS: higher = more surviving cells after MMS
The screen tested about 23,000 reagents; below is a random part of those that have a named target and a result. 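Values are quantile-normalised luminescence on an arbitrary scale; higher means more cells surviving MMS.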 Names joined by + are all predicted targets of the reagent. Further read-outs or replicates are left out here. No sequences are given here.

Knock-down of Drsl4 (Drosomycin-like 4) [SID104187826] came out at: mean viability with MMS 3.56e6; viability with MMS, replicate 1 = 4.04e6. Knock-down of Pink1 (PTEN-induced putative kinase 1) [SID104198153] resulted in: mean viability with MMS 3.50e6; viability with MMS, replicate 1 = 4.02e6. Knock-down of knon (knotted onions) [SID104186841] came out at: mean viability with MMS 3.56e6; viability with MMS, replicate 1 = 3.97e6. For CG6843 [SID104190517] the deposit lists mean viability with MMS 3.38e6; viability with MMS, replicate 1 = 3.74e6. With knock-down of CG7101 [SID104199815], the screen gave mean viability with MMS 3.63e6; viability with MMS, replicate 1 = 4.10e6. Knock-down of CG7101 [SID104202204] gave: mean viability with MMS 3.57e6; viability with MMS, replicate 1 = 4.06e6.

Against CG32588 [SID104201801], the entry reads mean viability with MMS 3.54e6; viability with MMS, replicate 1 = 4.00e6. Knock-down of ACXD (Adenylyl cyclase X D) [SID104187635] resulted in: mean viability with MMS 3.45e6; viability with MMS, replicate 1 = 3.95e6. For Ppn (Papilin) [SID104195120] the deposit lists mean viability with MMS 3.65e6; viability with MMS, replicate 1 = 4.10e6. For CG13622 [SID104194416] the deposit lists mean viability with MMS 3.48e6; viability with MMS, replicate 1 = 3.90e6. Knock-down of Tsp42Ej (Tetraspanin 42Ej) [SID104185905] came out at: mean viability with MMS 3.55e6; viability with MMS, replicate 1 = 3.93e6. For TM4SF (Transmembrane 4 superfamily) [SID104184453], the values are mean viability with MMS 3.36e6; viability with MMS, replicate 1 = 3.85e6.

D12 [SID104183103] showed mean viability with MMS 3.32e6; viability with MMS, replicate 1 = 3.91e6. MrgBP (MRG/MORF4L binding protein) [SID104186209] scored mean viability with MMS 3.52e6; viability with MMS, replicate 1 = 3.97e6. For CG6961 + CG18259 [SID104199591] the deposit lists mean viability with MMS 3.74e6; viability with MMS, replicate 1 = 4.23e6. CG6961 + CG18259 [SID104199811] showed mean viability with MMS 3.74e6; viability with MMS, replicate 1 = 4.32e6. Against shot (short stop) [SID104185251], the entry reads mean viability with MMS 3.62e6; viability with MMS, replicate 1 = 4.00e6. shot (short stop) [SID104185252] showed mean viability with MMS 3.56e6; viability with MMS, replicate 1 = 4.01e6.

After knock-down of shot (short stop) [SID104187474] the results were mean viability with MMS 3.81e6; viability with MMS, replicate 1 = 4.24e6. For Trs23 (TRAPP subunit 23) [SID104182982], the entry reads mean viability with MMS 3.49e6; viability with MMS, replicate 1 = 3.88e6. Against Herc4 (HECT and RLD domain containing E3 ubiquitin ligase 4) [SID104188423], the entry reads mean viability with MMS 3.64e6; viability with MMS, replicate 1 = 4.09e6. Silencing of RhoGAPp190 (Rho GTPase activating protein p190) [SID104199889] resulted in: mean viability with MMS 3.50e6; viability with MMS, replicate 1 = 4.03e6. With knock-down of RhoGAPp190 (Rho GTPase activating protein p190) [SID104199891] the results were mean viability with MMS 3.59e6; viability with MMS, replicate 1 = 4.17e6. For Bdbt (Bride of doubletime) [SID104195010], the values are mean viability with MMS 3.32e6; viability with MMS, replicate 1 = 3.77e6.

After knock-down of Dus3 (Dihydrouridine synthase 3) [SID104181851] the results were mean viability with MMS 3.33e6; viability with MMS, replicate 1 = 3.70e6. With knock-down of nis [SID104180082] the results were mean viability with MMS 3.78e6; viability with MMS, replicate 1 = 4.35e6. For Dpm1 (Dolichyl-phosphate mannosyltransferase subunit 1) [SID104181810] the deposit lists mean viability with MMS 3.51e6; viability with MMS, replicate 1 = 4.03e6. With knock-down of spdo (sanpodo) [SID104193780] the results were mean viability with MMS 3.39e6; viability with MMS, replicate 1 = 3.90e6. CG34227 [SID104186580] gave mean viability with MMS 3.47e6; viability with MMS, replicate 1 = 3.88e6. CG34227 [SID104186826] showed mean viability with MMS 3.40e6; viability with MMS, replicate 1 = 3.75e6.

With knock-down of Ass + CG31286 [SID104192285], the screen gave mean viability with MMS 3.56e6; viability with MMS, replicate 1 = 4.10e6. Depletion of Gpat4 (Glycerol-3-phosphate acyltransferase 4) [SID104184137] came out at: mean viability with MMS 3.64e6; viability with MMS, replicate 1 = 4.18e6. Silencing of ras (raspberry) [SID104198617] came out at: mean viability with MMS 3.47e6; viability with MMS, replicate 1 = 4.23e6. For Topors (Topoisomerase I-interacting protein) [SID104186323] the deposit lists mean viability with MMS 3.63e6; viability with MMS, replicate 1 = 4.27e6. For Cdk5alpha (Cdk5 activator-like protein) [SID104183082] the deposit lists mean viability with MMS 3.53e6; viability with MMS, replicate 1 = 3.96e6. Cdk5alpha (Cdk5 activator-like protein) [SID104202658] scored mean viability with MMS 3.33e6; viability with MMS, replicate 1 = 3.77e6.

Laid out differently: entries from further up.
Target gene	PubChem SID	mean viability with MMS	viability with MMS, replicate 1
nis	SID104180082	3.78e6	4.35e6
Dpm1 (Dolichyl-phosphate mannosyltransferase subunit 1)	SID104181810	3.51e6	4.03e6
spdo (sanpodo)	SID104193780	3.39e6	3.90e6
CG34227	SID104186580	3.47e6	3.88e6
CG34227	SID104186826	3.40e6	3.75e6
